{"source": "patent US20160263108A1", "about": "“NRF2 INHIBITORS AND COMPOSITIONS FOR TREATING MYCOBACTERIAL INFECTIONS” (THE HAMNER INSTITUTES, priority 2013, published 2016)", "test_system": "Nrf2-ARE activity", "type": "cell-based", "conditions": "basal conditions", "note": "At least one compound was matched to its structure with a doubt left."}
{"smiles": "CO[C@H]1/C=C/O[C@@]2(C)Oc3c(C)c(O)c4c(O)c(c(/C=N/N5CCN(C)CC5)c(O)c4c3C2=O)NC(=O)/C(C)=C\\C=C\\[C@H](C)[C@H](O)[C@@H](C)[C@@H](O)[C@@H](C)[C@H](OC(C)=O)[C@@H]1C", "note": "[Rifampicin]", "values": [{"measurement": "inhibitory effect on ARE-luciferase activity", "result": "concentration-dependent inhibitory effect"}]}
